Data reported in patent US7833543B2, “High viscosity liquid controlled delivery system and medical or surgical device” (Durect Corporation, priority 1995, dated 2010).
For at least one compound, name, drawing or mass did not settle the structure.

Columns and labels:
[1] = Cromolyn release from cromolyn sodium/PCL particles suspended in SAIB/benzyl benzoate; type: physicochemical; details: 3:2 cromolyn sodium/PCL particles in 70:30 SAIB/benzyl benzoate; over a 35-day period
[2] = Cromolyn sodium release from SAIB/benzyl benzoate containing DL-polylactide; type: physicochemical; details: 10 wt % cromolyn in SAIB:benzyl benzoate (74:26) with 5 wt % DL-PL; PBS pH 7.4

Q: Which results are given for O=C(O)c1cc(=O)c2c(OCC(O)COc3cccc4oc(C(=O)O)cc(=O)c34)cccc2o1 [cromolyn, cromolyn sodium (disodium cromoglycate)]?
A: cumulative total cromolyn released [1]: about 9 mg; cumulative total released, of available cromolyn [1]: ~10%; duration of cromolyn release [2]: approximately ten days
